Experimental data reported in PubChem BioAssay AID2685 (National Center for Advancing Translational Sciences (NCATS), 2010).
Screen size: about 320,000 compounds; about 2,100 (0.66%) were called active. Inconclusive results, whose numbers are uncertain, are shown with a selection of clear calls. The call rests on the fitted dose curve; in most records, active means well fitted inhibition curve with a large enough effect in the signal ratio, with a control signal flat (not every such curve was filed as active); inconclusive means small, poorly fitted or top-dose-only effect, or effect the other way, or a change in a side signal; inactive means flat fitted curve, though single readings scatter; the % refers to the signal ratio. A potency beside an inconclusive call is a rough fit, not a confirmed value.

Assay: qHTS Assay for Lipid Storage Modulators in Drosophila S3 Cells
Settings: BODIPY lipid droplet fluorescence, 18-24 h, cells fed with added oleic acid; lipid storage change, negative = inhibition: at 46.1 µM (top of the series) unless noted
In short: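 Laser-scanning cytometry quantifies lipid droplet accumulation (500–530 nm total intensity; droplet/cell object ratio) in oleic acid-fed (400 uM added) Drosophila S3 cells treated with a concentration series. 20 uM Triacsin C defined 100% inhibition.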
On the % scale 0 is the no-effect control and ±100 the full control effect; potency means the concentration at half of the fitted maximal effect.

SMILES	lipid storage change, negative = inhibition	Potency
S=C1NC2=C(CCCC2)C2(CCCCC2)N1	inactive: 3.68%	–
CCc1ccc(C(=O)NNC(=O)CN2C(=O)NC3(CCCC3)C2=O)cc1	–	inconclusive: 13 µM [activator, partial curve, poor fit]
CC(C)CNc1cc(=O)n(C)c(=O)n1C	–	inconclusive: 29.1 µM [falling, partial curve, poor fit]
Cc1cccc2cc(CN(Cc3cccnc3)C(=O)c3cccs3)c3nnnn3c12	inconclusive: 18.8%	–
O=C(CN1CCN(S(=O)(=O)c2ccccc2)CC1)N1CCc2ccccc21	inconclusive: 21.4%	–
COc1ccc(C(=O)n2c(SC)nc3cc4c(cc32)OCCO4)cc1	inconclusive: -36.6%	–
Cn1c(N)c(C(=O)COC(=O)C2CC(O)CN2S(=O)(=O)c2ccc(Cl)cc2)c(=O)n(C)c1=O (centres undefined)	inconclusive: -8.22%	–
CCOc1cccc(NC(=O)/C(C#N)=C\c2cccnc2)c1	inconclusive: -9.22%	–
CC(=O)Nc1ccc(NC(=O)c2c(C)nn(Cc3ccccc3)c2Cl)cc1	inconclusive: 213%	–
O=C(CN1C(=O)CCS(=O)(=O)c2ccccc21)Nc1ccc2c(c1)OCCO2	inactive: 4.62%	–
CC1(c2ccccn2)Nc2ccccc2-c2nc3ccccc3n21 (centres undefined)	inconclusive: 35.2%	–
Cc1cc2c(ccc3c2no[n+]3[O-])nn1	inconclusive: 23%	–
COc1ccc(-c2cc(C(=O)N3CCN(c4ccccc4)CC3)no2)cc1	–	inconclusive: 0.651 µM [activator, partial curve, poor fit]
COC(=O)c1c(C)oc(C)c1S(=O)(=O)NCc1ccc(OC)cc1	inconclusive: 4.61%	–
CC(C)Oc1ccc(C(CC(=O)O)NC(=O)CSc2ncn[nH]2)cc1 (centres undefined)	inconclusive: 9.67%	–
Cc1ccc(OCCn2cc(/C(N)=N/O)c3ccccc32)cc1C	–	inconclusive: 29.1 µM [falling, single point]
Cc1ccc(S(=O)(=O)/N=C(/c2ccc(F)cc2)N2CCCC2)cc1	–	inconclusive: 0.0052 µM [falling, full curve, poor fit]
Cc1nc2ccc(NC(=O)c3ccc(S(=O)(=O)N(C)c4ccccc4)cc3)cc2s1	–	inconclusive: 6.51 µM [rising, single point]
NC(=O)c1ccsc1NC(=O)CN1C(=O)C2CC=CCC2C1=O (centres undefined)	inconclusive: 16.5%	–
COc1cc(C(=O)ON=C2C=C(C)C(=O)C(C)=C2)cc(OC)c1OC	inconclusive: -23.9%	–
CCc1ccc(NC(=O)CCNC(=O)Cn2ccc3ccccc3c2=O)cc1	–	inconclusive: 6.51 µM [rising, partial curve, poor fit]
Cc1ccc(NC(=O)c2ccc(OCc3c(C)noc3C)cc2)cc1	inconclusive: 0.938%	–
COc1ccccc1CNC(=O)COC(=O)c1ccc(C)s1	–	active: 8.2 µM
O=S(=O)(Nc1ccc(O)c(NS(=O)(=O)c2ccccc2)c1)c1ccccc1	inconclusive: 48.5%	–
Cc1ccccc1NC(=O)Cn1cc(C(=O)C2CC2)c2ccccc21	–	inconclusive: 0.731 µM [activator, single point]

SMILES	lipid storage change, negative = inhibition	Potency
CCn1nc(C(=O)NNC(=O)CCOc2cc(C)ccc2C)c2ccccc2c1=O	inconclusive: -36.5% [at 0.00295 µM]	–
CC(C)CC(=O)Nc1ccc(F)c(Cl)c1	inconclusive: 1.69%	–
Cc1ccnc(NC(=O)Cc2ccc(-c3ccccc3)cc2)c1	inconclusive: 31.5%	–
COCCN(Cc1nc2ccccc2c(=O)[nH]1)C(=O)COc1cccc(C(C)=O)c1	inconclusive: -43.2%	–
O=C(CSc1ncccn1)NCc1cccc(Cl)c1	inconclusive: -12.2%	–
Cc1ccc(-c2cnc3ccccc3n2)cc1C	–	inconclusive: 4.61 µM [activator, full curve]
CCOC(=O)N=S(N)(=O)c1ccccc1 (centres undefined)	–	active: 14.6 µM
COc1ccc(CCNC(=O)CCC(=O)N2CCOc3ccccc32)cc1OC	–	inconclusive: 1.16 µM [falling, full curve, poor fit]
O=C1CCCC2=C1C(c1ccncc1)c1c(nc(SCc3ccccc3)[nH]c1=O)N2 (centres undefined)	inconclusive: 94.9%	–
O=C(N[C@@H](CO)C(=O)NCc1ccccc1)c1ccc(C(F)(F)F)cc1	inactive: 5.11%	–
COc1ccc(-n2c(C)nn(CC3CC3)c2=O)cc1	inconclusive: -4.25%	–
c1ccc(Cc2noc(CN3CCN(CCOc4ccccc4)CC3)n2)cc1	inconclusive: 15.7%	–
Cc1[nH]nc2c1C(c1ccc(F)cc1)C1=C(CC(C)(C)CC1=O)N2 (centres undefined)	–	inconclusive: 20.6 µM [rising, partial curve, poor fit]
COc1ccc(CNC(=O)N[C@@H](Cc2c[nH]c3ccccc23)C(=O)O)cc1	inconclusive: 27%	–
Cc1ccc(OCCCn2ccnc2)c([N+](=O)[O-])c1	–	inconclusive: 32.6 µM [activator, partial curve, poor fit]
CC(C)Nc1ccc(C(CC(N)=O)NC(=O)c2ccc(Br)cc2)cc1[N+](=O)[O-] (centres undefined)	inconclusive: 27.6%	–
COC(=O)c1cccc(NC(=O)CN2CCC(NC(=O)c3cc(OC)c(OC)c(OC)c3)CC2)c1	–	inconclusive: 0.411 µM [activator, partial curve]
CCN(CC)CCCn1c(=S)[nH]c2cc(Cl)ccc2c1=O	inconclusive: 9.28%	–
O=c1ccc(-c2ccc(S(=O)(=O)NCC3CCN(Cc4cccc(F)c4)CC3)s2)n[nH]1	–	inconclusive: 29.1 µM [activator, single point]
CCOc1ccc(NC(=O)CSc2nc(=O)n(Cc3ccccn3)c3c2CCC3)cc1	inconclusive: -64.2%	–
COc1ccc(CC(=O)N/N=C(\C)c2cccs2)cc1OC	–	inconclusive: 0.58 µM [activator, partial curve, poor fit]
CN(C)S(=O)(=O)N1CCN(S(=O)(=O)N2CCOCC2)CC1	inactive: 0.943%	–
COc1cccc(NC(=O)CN(C)C(C)C(=O)NC(=O)NC2CCCCC2)c1 (centres undefined)	–	inconclusive: 6.51 µM [activator, single point]
Cc1n[nH]c(=O)nc1N1CCc2ccccc2C1	inconclusive: 0.137%	–

Retrieved one by one from above, 3 records:
SMILES	lipid storage change, negative = inhibition	Potency
Cc1ccc(OCCCn2ccnc2)c([N+](=O)[O-])c1	–	inconclusive: 32.6 µM [activator, partial curve, poor fit]
CC(C)Nc1ccc(C(CC(N)=O)NC(=O)c2ccc(Br)cc2)cc1[N+](=O)[O-] (centres undefined)	inconclusive: 27.6%	–
c1ccc(Cc2noc(CN3CCN(CCOc4ccccc4)CC3)n2)cc1	inconclusive: 15.7%	–
